Binding data for 13 substances are collected here from paper PMC10061497.

The chains behind the UniProt entries cited, without tags or fusion partners. Where a name states a change or a piece, a line headed by the entry shows the natural chain unless it says otherwise.
UniProt Q584U1: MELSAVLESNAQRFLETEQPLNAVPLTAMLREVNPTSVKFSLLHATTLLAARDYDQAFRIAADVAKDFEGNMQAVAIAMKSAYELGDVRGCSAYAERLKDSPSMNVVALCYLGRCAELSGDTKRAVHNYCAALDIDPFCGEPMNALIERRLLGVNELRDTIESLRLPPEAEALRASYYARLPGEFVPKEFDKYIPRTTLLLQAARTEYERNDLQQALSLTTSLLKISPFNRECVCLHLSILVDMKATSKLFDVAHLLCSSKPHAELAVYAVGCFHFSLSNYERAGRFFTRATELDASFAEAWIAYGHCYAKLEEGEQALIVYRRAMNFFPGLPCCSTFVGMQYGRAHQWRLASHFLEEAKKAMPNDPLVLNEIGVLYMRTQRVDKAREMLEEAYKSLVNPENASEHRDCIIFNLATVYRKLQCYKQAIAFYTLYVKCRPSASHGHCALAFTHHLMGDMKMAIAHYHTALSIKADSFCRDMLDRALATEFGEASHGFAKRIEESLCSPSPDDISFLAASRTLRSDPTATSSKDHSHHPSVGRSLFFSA
UniProt Q389U4: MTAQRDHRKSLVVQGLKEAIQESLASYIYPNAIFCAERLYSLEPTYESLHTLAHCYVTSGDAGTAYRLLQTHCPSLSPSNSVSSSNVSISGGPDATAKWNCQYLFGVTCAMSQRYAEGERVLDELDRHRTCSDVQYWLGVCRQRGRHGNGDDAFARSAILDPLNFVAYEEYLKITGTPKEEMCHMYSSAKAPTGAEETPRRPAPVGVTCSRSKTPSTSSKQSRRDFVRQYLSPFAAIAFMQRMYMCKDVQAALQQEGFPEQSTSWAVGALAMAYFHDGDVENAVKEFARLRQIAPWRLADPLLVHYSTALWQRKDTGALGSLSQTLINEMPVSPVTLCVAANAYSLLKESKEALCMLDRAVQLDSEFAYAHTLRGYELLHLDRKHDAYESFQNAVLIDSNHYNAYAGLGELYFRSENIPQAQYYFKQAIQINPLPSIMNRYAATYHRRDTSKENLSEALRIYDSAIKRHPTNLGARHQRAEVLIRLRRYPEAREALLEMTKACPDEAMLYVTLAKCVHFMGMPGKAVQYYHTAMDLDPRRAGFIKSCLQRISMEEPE
UniProt Q38C15: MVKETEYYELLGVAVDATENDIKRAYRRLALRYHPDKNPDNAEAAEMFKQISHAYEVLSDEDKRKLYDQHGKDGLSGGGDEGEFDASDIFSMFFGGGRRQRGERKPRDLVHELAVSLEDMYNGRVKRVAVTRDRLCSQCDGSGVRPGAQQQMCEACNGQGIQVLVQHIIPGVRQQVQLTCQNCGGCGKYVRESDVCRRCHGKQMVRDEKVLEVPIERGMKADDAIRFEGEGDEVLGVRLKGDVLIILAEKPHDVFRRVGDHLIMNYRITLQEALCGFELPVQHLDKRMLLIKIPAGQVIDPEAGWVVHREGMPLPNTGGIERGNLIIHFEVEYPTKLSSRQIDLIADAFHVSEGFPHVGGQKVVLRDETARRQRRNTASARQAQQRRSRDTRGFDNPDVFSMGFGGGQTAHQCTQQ
UniProt Q580Z5: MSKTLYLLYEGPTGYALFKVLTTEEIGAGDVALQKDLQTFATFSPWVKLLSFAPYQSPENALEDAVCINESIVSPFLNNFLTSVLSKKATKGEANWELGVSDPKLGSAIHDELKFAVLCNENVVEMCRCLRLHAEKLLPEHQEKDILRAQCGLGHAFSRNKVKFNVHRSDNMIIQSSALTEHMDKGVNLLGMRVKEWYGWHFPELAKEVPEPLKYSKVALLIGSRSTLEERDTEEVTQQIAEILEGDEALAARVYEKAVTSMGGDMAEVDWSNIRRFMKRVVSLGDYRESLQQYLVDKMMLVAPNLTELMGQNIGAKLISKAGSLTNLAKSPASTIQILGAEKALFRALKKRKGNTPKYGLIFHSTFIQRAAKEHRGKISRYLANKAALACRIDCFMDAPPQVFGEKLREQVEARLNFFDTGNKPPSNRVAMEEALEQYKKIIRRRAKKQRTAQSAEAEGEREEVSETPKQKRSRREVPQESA
UniProt Q38F23: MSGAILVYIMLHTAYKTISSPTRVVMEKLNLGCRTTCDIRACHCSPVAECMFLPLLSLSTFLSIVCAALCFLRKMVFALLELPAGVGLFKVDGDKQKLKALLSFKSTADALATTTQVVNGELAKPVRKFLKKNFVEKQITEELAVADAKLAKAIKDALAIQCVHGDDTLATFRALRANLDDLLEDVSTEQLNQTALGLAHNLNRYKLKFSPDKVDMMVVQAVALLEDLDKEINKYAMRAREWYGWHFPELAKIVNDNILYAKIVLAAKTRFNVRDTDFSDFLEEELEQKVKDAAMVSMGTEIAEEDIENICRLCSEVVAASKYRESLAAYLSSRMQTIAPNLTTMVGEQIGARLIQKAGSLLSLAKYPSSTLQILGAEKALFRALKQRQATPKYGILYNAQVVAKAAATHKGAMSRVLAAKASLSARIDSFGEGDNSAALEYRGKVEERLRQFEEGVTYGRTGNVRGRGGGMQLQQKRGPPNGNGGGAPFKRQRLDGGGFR
UniProt Q583J3: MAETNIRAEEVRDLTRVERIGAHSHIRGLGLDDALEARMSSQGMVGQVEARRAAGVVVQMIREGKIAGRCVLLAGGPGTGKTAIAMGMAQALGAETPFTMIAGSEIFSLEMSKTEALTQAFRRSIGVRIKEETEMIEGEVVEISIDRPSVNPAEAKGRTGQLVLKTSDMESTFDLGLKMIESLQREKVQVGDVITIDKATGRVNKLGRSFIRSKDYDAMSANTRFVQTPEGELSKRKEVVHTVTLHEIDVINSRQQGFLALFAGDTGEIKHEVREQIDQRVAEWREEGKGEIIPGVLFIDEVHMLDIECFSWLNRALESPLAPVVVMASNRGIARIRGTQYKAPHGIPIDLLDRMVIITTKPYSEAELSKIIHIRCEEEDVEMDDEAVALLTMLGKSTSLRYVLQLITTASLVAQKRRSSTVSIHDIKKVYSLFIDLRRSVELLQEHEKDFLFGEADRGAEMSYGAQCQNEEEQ
UniProt Q382Z6: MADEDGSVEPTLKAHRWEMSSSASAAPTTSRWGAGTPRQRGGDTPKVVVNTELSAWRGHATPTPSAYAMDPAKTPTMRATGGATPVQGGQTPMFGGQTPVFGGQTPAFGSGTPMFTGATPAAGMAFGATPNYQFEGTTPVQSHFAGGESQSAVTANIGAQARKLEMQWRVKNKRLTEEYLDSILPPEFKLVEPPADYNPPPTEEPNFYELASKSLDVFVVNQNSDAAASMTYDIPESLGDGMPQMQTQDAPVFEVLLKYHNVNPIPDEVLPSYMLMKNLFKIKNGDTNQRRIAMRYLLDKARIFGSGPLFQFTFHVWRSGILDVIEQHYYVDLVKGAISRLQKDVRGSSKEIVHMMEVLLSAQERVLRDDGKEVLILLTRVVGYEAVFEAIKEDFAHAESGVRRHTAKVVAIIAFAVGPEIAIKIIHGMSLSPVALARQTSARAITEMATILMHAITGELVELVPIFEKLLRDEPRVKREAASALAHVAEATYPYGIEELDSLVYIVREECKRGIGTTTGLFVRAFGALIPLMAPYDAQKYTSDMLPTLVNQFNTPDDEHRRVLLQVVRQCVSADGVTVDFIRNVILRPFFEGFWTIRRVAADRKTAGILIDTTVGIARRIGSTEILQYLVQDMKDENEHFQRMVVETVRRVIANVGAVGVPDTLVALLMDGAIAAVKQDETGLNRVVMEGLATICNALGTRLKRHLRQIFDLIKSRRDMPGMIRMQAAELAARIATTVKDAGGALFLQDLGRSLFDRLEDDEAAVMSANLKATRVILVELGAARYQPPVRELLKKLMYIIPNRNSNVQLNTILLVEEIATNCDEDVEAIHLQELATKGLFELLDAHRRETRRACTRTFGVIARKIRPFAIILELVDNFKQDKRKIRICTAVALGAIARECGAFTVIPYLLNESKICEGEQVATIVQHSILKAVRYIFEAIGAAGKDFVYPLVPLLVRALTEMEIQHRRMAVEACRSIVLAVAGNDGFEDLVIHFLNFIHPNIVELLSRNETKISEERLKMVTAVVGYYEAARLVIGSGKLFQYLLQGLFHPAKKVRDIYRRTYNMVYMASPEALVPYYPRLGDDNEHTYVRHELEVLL
UniProt Q38C07: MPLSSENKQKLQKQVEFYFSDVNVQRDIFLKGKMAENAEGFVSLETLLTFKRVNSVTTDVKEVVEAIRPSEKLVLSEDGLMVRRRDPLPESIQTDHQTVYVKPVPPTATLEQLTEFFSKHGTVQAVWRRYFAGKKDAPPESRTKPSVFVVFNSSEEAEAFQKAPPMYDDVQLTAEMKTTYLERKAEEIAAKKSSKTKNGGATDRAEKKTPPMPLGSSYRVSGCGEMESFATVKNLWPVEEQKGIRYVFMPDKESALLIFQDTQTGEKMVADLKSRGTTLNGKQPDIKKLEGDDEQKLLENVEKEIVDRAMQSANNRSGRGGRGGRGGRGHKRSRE
UniProt Q586I3: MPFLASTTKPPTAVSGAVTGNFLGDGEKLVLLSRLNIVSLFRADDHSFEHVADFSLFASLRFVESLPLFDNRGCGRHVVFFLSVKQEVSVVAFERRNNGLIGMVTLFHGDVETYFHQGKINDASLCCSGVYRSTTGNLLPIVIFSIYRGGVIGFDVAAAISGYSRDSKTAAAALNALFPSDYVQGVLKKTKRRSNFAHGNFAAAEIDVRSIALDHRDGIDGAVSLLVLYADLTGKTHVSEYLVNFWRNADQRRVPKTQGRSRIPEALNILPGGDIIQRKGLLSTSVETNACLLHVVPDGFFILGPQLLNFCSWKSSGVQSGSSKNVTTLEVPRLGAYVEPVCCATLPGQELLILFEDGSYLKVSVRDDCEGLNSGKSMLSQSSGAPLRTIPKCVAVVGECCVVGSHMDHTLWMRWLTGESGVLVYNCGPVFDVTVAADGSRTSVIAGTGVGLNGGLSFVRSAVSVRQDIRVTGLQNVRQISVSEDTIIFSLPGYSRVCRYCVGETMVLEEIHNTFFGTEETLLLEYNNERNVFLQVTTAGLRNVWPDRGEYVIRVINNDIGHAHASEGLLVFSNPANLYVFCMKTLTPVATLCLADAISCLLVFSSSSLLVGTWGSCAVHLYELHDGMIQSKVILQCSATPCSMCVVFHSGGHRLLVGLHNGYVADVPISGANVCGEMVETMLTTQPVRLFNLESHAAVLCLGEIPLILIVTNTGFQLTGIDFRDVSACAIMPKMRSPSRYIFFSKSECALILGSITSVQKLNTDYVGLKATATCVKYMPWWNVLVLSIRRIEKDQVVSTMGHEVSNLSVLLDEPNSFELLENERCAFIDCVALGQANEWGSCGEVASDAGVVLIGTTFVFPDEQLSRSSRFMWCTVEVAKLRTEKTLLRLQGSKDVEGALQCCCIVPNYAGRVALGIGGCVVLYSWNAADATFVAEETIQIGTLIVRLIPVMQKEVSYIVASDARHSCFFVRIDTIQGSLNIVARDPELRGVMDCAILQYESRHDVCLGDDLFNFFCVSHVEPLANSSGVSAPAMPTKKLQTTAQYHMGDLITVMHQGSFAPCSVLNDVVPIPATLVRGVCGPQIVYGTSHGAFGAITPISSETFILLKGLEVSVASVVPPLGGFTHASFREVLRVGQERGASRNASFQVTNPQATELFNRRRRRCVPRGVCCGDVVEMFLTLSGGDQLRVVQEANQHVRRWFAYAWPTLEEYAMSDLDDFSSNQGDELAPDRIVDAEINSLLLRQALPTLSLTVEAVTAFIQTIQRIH
UniProt Q38B27: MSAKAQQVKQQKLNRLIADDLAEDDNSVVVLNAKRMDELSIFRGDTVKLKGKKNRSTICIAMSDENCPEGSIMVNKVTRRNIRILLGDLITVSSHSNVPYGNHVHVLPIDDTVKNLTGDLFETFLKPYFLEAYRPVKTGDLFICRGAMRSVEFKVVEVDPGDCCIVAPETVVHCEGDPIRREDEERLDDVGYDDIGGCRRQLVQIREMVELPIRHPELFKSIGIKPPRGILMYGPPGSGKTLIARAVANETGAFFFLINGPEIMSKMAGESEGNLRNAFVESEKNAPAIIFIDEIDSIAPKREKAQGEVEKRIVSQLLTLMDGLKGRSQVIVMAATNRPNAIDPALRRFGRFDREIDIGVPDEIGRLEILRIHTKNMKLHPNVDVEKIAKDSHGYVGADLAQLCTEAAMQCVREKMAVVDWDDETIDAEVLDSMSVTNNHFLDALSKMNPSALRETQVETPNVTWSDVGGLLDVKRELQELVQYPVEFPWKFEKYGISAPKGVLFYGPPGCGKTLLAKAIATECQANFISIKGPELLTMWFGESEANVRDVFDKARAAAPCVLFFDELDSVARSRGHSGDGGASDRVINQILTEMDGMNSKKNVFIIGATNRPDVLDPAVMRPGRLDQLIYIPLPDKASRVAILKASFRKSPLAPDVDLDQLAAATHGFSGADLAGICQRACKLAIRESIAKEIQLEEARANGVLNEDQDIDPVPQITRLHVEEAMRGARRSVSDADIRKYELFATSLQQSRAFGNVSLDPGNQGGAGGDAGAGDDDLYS

Results are given in words; binding and its absence hold for the method and conditions named. Binding seen in cells or lysates may run through a third protein. These calls come from enrichment with a bait or labelling near it, and not all partners need be listed. Tags and fused reporters may be left off the sequences shown.

The target in the assay is T1, T. brucei telomerase reverse transcriptase (TbTERT), FLAG-HA-HA tagged (Trypanosoma brucei) (UniProt Q383R0).
T1 sequence: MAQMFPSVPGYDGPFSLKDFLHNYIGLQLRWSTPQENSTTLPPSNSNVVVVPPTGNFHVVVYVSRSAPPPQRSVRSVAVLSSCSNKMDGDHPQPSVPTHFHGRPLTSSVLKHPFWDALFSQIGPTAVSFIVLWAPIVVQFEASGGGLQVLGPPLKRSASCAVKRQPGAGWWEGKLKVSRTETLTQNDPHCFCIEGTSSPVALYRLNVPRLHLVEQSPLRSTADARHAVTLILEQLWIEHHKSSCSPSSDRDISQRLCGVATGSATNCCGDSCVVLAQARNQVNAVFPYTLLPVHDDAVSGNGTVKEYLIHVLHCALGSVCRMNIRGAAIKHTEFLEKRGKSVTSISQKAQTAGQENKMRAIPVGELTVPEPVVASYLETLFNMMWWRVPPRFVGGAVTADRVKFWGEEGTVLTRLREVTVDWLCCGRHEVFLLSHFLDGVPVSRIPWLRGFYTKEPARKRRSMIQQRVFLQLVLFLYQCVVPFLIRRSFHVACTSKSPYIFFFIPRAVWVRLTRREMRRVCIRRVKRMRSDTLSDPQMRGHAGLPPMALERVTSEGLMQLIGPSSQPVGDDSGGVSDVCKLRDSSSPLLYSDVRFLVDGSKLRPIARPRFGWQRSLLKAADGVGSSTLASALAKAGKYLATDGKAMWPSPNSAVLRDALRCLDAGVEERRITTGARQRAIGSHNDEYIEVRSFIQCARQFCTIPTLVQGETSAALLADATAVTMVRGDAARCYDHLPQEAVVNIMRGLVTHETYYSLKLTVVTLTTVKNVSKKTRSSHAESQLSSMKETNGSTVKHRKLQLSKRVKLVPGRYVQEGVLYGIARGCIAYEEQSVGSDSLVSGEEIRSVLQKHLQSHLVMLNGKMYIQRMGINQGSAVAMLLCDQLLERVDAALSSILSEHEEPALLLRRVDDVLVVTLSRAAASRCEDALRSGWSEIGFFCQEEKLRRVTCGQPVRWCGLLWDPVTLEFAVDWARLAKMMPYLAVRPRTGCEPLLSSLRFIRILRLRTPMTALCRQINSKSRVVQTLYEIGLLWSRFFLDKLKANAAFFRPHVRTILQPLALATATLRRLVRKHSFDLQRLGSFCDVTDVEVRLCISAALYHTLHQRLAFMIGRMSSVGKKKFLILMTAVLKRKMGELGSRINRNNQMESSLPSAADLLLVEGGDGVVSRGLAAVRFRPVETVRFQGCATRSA
The experiment in a line: affinity purification with mass spectrometry; native telomerase complexes precipitated from BF T. brucei lysate (1 mg total protein) with a custom anti-TbTERT C-terminus antibody and protein G Dynabeads, overnight at 4°C; 25 mM Tris-HCl pH 7.5, 150 mM KCl, 1 mM EDTA, 10 mM MgCl2, 0.5% IGEPAL CA630, RNase inhibitor; isotype IgG control; 3 IPs and 3 controls; LC-MS/MS.
Consider “CDC16 homolog (anaphase promoting complex protein) (from UniProt Q584U1)”, for which the binding result is given as “binds”.

For “CDC27 homolog (anaphase promoting complex protein APC3) (from UniProt Q389U4)”, the binding result was “binds”.

For DnaJ (from UniProt Q38C15), the binding entry is reported as “binds”.

As to NOP56 (from UniProt Q580Z5), the binding entry was “binds”.

Take “Nucleolar protein 58 (NOP58) (from UniProt Q38F23)”: the binding entry is “binds”.

As for “Pontin homolog (RuvB-like DNA helicase) (from UniProt Q581V4)”, the binding result is listed as “binds”.

With “Reptin homolog (RuvB-like DNA helicase) (from UniProt Q583J3)”, the binding result was “binds”.

Consider “Splicing factor 3B subunit 1 (SF3B1) homolog (from UniProt Q382Z6)”, for which the binding result was “binds”.

Consider “T. brucei La protein (from UniProt Q38C07)”, for which the binding result is “binds”.

As to “T. brucei homolog of Poly(A)-specific ribonuclease (PARN) (enzyme)”, the binding result is “binds”.

TbUMSBP2: the binding result is on record as “binds”.

On to “damage specific DNA binding protein 1 (DDB1) homolog (from UniProt Q586I3)”, for which the binding result is “binds”.

As to “yeast CDC48 homolog (AAA+ ATPase protein) (from UniProt Q38B27)”, the binding result is on record as “binds”.
